For experiment [1], the target named is full length Hsp90alpha (human) (UniProt P07900). In words: ELISA, peptide immobilized, recombinant Hsp90 added, detection with anti-Hsp90 (n=2); no blank bar on the sheet.
The target is the same in experiment [2]. Put plainly: surface plasmon resonance.

The values below come from patent US20140086924A1.

These are yes or no findings as the source states them, for the method shown. Some entries that bind do so weakly or less than the wild type.

B1: A85G (peptide)
peptide: KHSSGCGFL
Regarding B1, in experiment [1], the binding result was “binds”.

B2: Survivin Ile74-Leu87 peptide (peptide)
peptide: IDDHKKHSSGCAFL
For B2, the binding entry in experiment [2] is “binds”.
